According to PMC8034618:
No constants are given. Whether binding was seen depends on the method and setting. Binding seen in cells or lysates may run through a third protein. For some assays here: Sequences can lack the tags named with a protein.

By UniProt entry, the sequences of proteins in these tests, tags left out.
UniProt Q71RC2: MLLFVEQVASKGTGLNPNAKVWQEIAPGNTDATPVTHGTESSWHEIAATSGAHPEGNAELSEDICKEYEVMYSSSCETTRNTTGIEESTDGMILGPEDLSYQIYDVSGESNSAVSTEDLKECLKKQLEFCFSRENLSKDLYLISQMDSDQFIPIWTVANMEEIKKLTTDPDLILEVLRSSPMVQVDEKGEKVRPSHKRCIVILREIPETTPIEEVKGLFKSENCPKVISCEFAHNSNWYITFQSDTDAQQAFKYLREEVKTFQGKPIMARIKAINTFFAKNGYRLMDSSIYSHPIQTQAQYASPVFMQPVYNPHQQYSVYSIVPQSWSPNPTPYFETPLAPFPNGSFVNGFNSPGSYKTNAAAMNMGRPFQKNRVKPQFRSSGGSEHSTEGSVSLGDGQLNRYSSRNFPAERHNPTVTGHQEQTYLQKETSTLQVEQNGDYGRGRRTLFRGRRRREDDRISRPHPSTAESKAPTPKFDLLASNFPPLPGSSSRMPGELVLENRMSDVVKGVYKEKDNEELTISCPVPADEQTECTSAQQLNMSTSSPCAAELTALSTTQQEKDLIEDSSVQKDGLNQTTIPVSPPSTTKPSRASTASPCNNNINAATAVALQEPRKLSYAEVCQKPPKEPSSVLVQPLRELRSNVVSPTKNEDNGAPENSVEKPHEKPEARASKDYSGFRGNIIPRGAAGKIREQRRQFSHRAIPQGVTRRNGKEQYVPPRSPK
UniProt Q92615: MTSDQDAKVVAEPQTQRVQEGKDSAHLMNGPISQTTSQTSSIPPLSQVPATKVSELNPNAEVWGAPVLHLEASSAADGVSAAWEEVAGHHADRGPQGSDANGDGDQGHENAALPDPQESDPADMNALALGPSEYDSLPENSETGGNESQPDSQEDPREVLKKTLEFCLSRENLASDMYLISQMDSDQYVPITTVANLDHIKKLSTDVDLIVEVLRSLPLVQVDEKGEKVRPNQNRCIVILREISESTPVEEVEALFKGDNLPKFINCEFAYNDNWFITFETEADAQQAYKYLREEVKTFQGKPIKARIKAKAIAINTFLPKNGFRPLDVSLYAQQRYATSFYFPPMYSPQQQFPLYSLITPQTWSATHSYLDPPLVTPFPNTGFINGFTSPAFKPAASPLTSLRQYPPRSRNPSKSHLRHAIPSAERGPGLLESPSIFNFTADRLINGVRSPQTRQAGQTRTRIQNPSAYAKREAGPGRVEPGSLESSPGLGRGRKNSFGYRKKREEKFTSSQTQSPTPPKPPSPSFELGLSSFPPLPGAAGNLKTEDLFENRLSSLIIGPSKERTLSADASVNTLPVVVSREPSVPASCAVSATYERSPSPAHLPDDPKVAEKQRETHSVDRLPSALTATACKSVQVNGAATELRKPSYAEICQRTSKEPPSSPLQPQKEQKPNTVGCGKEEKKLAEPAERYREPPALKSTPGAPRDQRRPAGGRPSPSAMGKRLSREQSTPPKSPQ
UniProt Q8N122: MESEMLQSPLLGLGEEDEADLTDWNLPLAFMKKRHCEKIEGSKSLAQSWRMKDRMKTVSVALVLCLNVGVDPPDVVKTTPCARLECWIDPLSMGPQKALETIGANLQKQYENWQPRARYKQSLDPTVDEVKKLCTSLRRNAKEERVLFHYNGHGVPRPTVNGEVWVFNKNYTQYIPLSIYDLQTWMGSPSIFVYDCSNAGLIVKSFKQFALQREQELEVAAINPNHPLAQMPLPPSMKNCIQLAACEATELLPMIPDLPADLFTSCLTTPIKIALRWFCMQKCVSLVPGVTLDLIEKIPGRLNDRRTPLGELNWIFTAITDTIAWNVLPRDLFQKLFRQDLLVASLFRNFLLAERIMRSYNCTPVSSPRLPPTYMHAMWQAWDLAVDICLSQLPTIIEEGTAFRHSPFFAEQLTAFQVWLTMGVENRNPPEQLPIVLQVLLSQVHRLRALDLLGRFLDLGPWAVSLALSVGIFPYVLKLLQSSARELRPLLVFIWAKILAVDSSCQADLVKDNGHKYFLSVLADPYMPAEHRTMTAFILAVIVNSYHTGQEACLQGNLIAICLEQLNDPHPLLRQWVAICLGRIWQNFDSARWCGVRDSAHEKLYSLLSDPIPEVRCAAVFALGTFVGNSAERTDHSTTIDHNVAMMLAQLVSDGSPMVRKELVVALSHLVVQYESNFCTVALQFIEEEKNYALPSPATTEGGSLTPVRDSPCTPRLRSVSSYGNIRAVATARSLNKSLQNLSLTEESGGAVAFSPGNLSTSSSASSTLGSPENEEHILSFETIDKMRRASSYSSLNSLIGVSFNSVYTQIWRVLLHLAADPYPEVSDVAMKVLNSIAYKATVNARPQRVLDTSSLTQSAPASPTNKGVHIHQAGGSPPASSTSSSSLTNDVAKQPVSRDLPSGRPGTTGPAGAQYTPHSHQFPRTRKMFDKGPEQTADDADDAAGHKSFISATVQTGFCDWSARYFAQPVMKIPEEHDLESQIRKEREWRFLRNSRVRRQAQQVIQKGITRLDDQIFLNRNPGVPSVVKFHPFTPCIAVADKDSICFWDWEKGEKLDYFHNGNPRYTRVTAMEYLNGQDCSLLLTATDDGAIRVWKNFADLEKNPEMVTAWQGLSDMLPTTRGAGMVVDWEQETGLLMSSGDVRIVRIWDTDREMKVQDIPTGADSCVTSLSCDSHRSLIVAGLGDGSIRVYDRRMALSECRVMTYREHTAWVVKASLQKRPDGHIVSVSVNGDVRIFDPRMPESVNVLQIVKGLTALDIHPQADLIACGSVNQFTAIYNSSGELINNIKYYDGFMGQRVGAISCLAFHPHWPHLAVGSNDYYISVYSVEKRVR

Experiments:
Experiment in all cases: co-IP; anti-FLAG immunoprecipitation of FLAG-tagged LARP proteins, mutants or fragments transiently expressed in HEK 293T; cells stimulated with complete growth media for 3 h (in Figure 5B with DMSO or 300 nM torin1); lysed in CHAPS-based extraction buffer with RNase A; western blot for endogenous RAPTOR, mTOR, PABP, eIF4E1, eIF4G1
[1] = biological target: FLAG-tagged human wildtype LARP4 (human) (UniProt Q71RC2)
[2] = biological target: FLAG-tagged human wildtype LARP5 (human) (UniProt Q92615)
[3] = biological target: T1, FLAG-tagged human wildtype La (human) (UniProt P05455)
T1 sequence: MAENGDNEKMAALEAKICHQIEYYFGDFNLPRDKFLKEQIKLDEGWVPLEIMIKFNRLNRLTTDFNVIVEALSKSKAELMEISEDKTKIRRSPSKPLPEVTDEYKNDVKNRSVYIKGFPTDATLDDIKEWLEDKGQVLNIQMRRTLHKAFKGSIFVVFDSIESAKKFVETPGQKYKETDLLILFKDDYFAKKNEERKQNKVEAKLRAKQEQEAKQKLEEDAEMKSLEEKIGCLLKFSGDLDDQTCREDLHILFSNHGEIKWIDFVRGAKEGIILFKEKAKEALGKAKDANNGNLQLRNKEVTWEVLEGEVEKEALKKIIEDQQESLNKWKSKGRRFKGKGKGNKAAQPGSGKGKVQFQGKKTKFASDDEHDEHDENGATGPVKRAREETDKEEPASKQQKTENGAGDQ

[4] = biological target: T2, human wildtype LARP6 (human) (UniProt Q9BRS8)
T2 sequence: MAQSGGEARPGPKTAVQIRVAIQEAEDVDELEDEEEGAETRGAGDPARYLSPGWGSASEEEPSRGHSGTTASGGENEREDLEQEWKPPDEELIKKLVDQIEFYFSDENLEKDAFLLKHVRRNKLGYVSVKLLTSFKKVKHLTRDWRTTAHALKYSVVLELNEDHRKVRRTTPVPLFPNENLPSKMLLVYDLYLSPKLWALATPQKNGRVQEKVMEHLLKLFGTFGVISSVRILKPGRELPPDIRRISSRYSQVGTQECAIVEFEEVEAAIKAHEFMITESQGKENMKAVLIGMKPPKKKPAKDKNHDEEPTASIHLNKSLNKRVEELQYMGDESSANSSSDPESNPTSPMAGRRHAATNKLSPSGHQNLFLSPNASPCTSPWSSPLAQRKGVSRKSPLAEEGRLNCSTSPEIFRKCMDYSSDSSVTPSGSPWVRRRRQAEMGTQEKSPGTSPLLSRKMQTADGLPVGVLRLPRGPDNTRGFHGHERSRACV

[5] = biological target: T3, human wildtype LARP7 (human) (UniProt Q4G0J3)
T3 sequence: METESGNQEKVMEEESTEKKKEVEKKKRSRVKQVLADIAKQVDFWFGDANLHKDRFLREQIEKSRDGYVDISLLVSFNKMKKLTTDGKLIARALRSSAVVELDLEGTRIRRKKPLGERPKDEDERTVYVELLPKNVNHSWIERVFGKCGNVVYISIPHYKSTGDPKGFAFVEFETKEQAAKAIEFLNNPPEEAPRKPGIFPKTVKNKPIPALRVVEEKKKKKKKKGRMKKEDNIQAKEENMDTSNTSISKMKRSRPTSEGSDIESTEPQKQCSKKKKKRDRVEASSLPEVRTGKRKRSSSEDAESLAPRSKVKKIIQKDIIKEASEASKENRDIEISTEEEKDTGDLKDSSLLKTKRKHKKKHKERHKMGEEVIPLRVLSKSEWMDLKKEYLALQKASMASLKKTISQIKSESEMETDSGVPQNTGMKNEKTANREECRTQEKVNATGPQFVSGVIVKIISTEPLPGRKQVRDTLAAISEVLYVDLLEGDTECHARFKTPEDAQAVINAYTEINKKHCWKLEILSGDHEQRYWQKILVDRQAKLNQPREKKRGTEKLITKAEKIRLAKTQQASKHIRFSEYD

Measured: binding

regulatory associated protein of mTOR (RAPTOR), endogenous (from UniProt Q8N122 1-1335)
no binding: all assays above
